Source: patent US20150272931A1, “New Treatment” (priority 2012, published 2015)

Experiment: Feed consumption: dose achieved in treatment groups based on uneaten feed (in-feed treatment)
Type: in vivo, Atlantic salmon
Details: for food-uptake (suitability for in-feed treatment of salmon): at medium and higher concentrations of added active ingredient in the food; for % of target dose achieved: based on uneaten feed
[1] = nominal dose 1 mg/kg/day in feed for seven days
[2] = nominal dose 5 mg/kg/day in feed for seven days
[3] = nominal dose 10 mg/kg/day in feed for seven days

SMILES: C/C(=N\C#N)N(C)Cc1ccc(Cl)nc1 [Acetamiprid, acetamiprid]
- food-uptake (suitability for in-feed treatment of salmon): reduced to an unacceptable level
- % of target dose achieved [1]: 98%
- % of target dose achieved [2]: 62%
- % of target dose achieved [3]: 38%

SMILES: CCN(Cc1ccc(Cl)nc1)/C(=C/[N+](=O)[O-])NC [Nitenpyram, nitenpyram]
- % of target dose achieved [1]: 108%
- % of target dose achieved [2]: 96%
- % of target dose achieved [3]: 92%

SMILES: CN/C(=N\[N+](=O)[O-])NCc1cnc(Cl)s1 [Clothianidin, (E)-1-(2-Chlor-1,3-thiazol-5-ylmethyl)-3-methyl-2-nitroguanidin]
- % of target dose achieved [1]: 99%
- % of target dose achieved [2]: 98%
- % of target dose achieved [3]: 97%

SMILES: O=[N+]([O-])NC1=NCCN1Cc1ccc(Cl)nc1 [Imidacloprid, imidacloprid]
- food-uptake (suitability for in-feed treatment of salmon): reduced to an unacceptable level
- % of target dose achieved [1]: 100%
- % of target dose achieved [2]: 77%
- % of target dose achieved [3]: 33%
